# Measured values published in PubChem BioAssay AID1671190 (National Center for Advancing Translational Sciences (NCATS), 2021).
# Amino acid sequences for entries named in this document (tags omitted). A change or cut given only in a name is not applied to a line headed by its entry.
# UniProt P18054: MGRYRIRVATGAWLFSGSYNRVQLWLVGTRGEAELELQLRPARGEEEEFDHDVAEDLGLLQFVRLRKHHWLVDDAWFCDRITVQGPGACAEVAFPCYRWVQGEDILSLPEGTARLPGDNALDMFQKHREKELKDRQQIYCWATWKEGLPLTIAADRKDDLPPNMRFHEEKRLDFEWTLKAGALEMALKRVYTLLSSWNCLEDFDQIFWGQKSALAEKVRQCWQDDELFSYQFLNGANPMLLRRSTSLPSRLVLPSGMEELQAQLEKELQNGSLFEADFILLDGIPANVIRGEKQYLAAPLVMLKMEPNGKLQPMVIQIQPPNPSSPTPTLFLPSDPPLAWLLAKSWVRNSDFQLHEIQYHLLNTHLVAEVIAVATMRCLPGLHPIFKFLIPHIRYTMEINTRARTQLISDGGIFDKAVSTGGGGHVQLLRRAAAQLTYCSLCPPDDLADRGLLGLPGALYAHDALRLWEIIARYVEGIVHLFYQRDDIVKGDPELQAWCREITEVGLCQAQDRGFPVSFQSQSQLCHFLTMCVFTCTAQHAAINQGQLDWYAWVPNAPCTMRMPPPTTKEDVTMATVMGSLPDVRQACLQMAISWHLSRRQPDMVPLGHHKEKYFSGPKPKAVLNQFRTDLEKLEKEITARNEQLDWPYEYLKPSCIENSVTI
# Where “and” joins values, the source holds several entries; their conditions need not be identical. Equal values may be shown once. Among all 580,000 compounds or so, about 6,100 (1.1%) were called active. Inconclusive results, whose numbers are uncertain, are shown with a selection of clear calls. Calls follow the shape of the dose curve; as a rule, active = well fitted inhibition curve with a large enough effect; inconclusive = small, poorly fitted or top-dose-only effect, or another doubt; inactive = no such curve, though single readings can be large or run the other way. A potency beside an inconclusive call is a rough fit, not a confirmed value.
# Molecular target: Polyunsaturated fatty acid lipoxygenase ALOX12 (Homo sapiens) (UniProt P18054)
# Assay: Primary qHTS assay for inhibitors of human arachidonate 12S-lipoxygenase (ALOX12): Round 2
# Conditions: purified 12hLO, xylenol orange hydroperoxide absorbance; activity change, negative = inhibition: at 108 µM (top of the series) unless noted
# How it was run: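 Purified human 12hLO at 150 nM in 25 mM Hepes, 0.01% Triton X-100, pH 7.0, preincubated 15 min at room temperature with compound. Reaction started with 40 uM arachidonic acid, 30 min at room temperature. Hydroperoxide measured by Fe-xylenol orange, 573/405 nm absorbance ratio.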
# % is scaled to controls: 0 for no effect and ±100 for the full control effect; potency is read from the fitted curve at half-maximal effect.
Structure (SMILES),"activity change, negative = inhibition",Potency
COc1ccccc1CN(C(=O)CNC(=O)c1ccco1)C(C(=O)NCC1CCCO1)c1ccccc1 (stereo not drawn),inactive: -23.7%,–
CCOC(=O)N1CCN(Cc2nc3c(c(=O)n(C)c(=O)n3C)n2Cc2ccc(F)cc2)CC1,inactive: 22.2%,–
Nc1nc(CSC(=S)N2CCCCC2)nc(Nc2ccccc2)n1,inactive: -25%,–
CC12CCC(C(N)C1=O)C2(C)C (stereo not drawn),–,"inconclusive: 39.8 µM [inhibitor, partial curve, poor fit]"
CC(=O)C(Cc1ccccc1)NC(=O)CCl (stereo not drawn),–,"inconclusive: 79.4 µM [inhibitor, single point]"
COc1ncnc2c1ncn2CC1COC(C)(C)O1 (stereo not drawn),–,"inconclusive: 126 µM [inhibitor, single point]"
Cn1c(N/N=C/c2ccccc2)nc2sc3c(c2c1=O)CCC3,–,"inconclusive: 28.2 µM [inhibitor, partial curve, poor fit]"
CC(C)(CNC(=O)CCCNC(=O)C1CC1)c1ccc(Br)cc1,inactive: -35.9%,–
CCCCCCSc1ccc(-c2nc3cc(C)ccn3c2NC2CCCCC2)cc1,–,"inactive and inconclusive: 44.7 µM [inhibitor, partial curve, poor fit]"
O=C(/C=C/c1ccc(-c2ccccc2)o1)c1ccco1,–,"inconclusive: 15.8 µM [inhibitor, partial curve, poor fit]"
Cc1cc(C)c(C)c(SCC(=O)Nc2oc(C)c3c(C)n[nH]c(=O)c23)c1C,–,active: 25.1 µM
O=C(O)c1ccc(CNCc2cccc3ccccc23)cc1,–,"inconclusive: 126 µM [inhibitor, single point]"
COc1cccc(C2CC(=O)Nc3c2c(=O)n(C)c2nc4ccccc4n32)c1OC (stereo not drawn),inactive: -7.24%,–
CCN(Cc1cccs1)Cc1cc(=O)oc2cc(C)c(C)cc12,–,"inconclusive: 35.5 µM [inhibitor, partial curve, poor fit]"
COc1ccc(CNC(=O)c2onc(C)c2Cl)cc1,–,"inconclusive: 100 µM [inhibitor, single point]"
CCCCCCCCN1C(=O)[C@@H](CC(=O)NCCCN2CCCC2=O)C[C@@]2(C(=O)OC)C1=C[C@H](C(C)(C)C)O[C@@H]2C,–,"inconclusive: 141 µM [inhibitor, partial curve, poor fit]"
COc1ccc(NS(=O)(=O)c2ccc(OCC(=O)NCc3ccc4c(c3)OCO4)c(C)c2)cc1,–,"inconclusive: 50.1 µM [inhibitor, partial curve, poor fit]"
O=C(NC(C1CC1)C1CC1)c1cccc(Cl)c1,–,"inconclusive: 44.7 µM [inhibitor, partial curve, poor fit]"
O=C(CNC(=O)c1ccc2ccccc2c1)OCC(=O)N1CCN(S(=O)(=O)c2ccc3ccccc3c2)CC1,–,"inconclusive: 3.55 µM [inhibitor, full curve, poor fit]"
CC(=O)c1c(C)[nH]c(C(=O)C(C)Sc2ccccc2Br)c1C (stereo not drawn),–,"inconclusive: 56.2 µM [inhibitor, partial curve, poor fit]"
S=C(Nc1ccc2cn[nH]c2c1)Nc1ccc(Cl)cc1Cl,–,"inconclusive: 44.7 µM [inhibitor, partial curve, poor fit]"
Cc1ccc(CNn2cn[nH]c2=S)cc1,–,"inconclusive: 39.8 µM [inhibitor, partial curve, poor fit]"

Structure (SMILES),"activity change, negative = inhibition",Potency
Cc1onc(-c2c(F)cccc2Cl)c1C(=O)OCC(=O)N(C)c1ccccc1,inactive: -1.47%,–
CCNc1c(NC(=O)c2cc(Br)ccc2OC)c(=O)oc2ccccc12,–,"inconclusive: 1.58 µM [inhibitor, full curve, poor fit]"
O=C1c2ccccc2C(=O)N1CCCCN(C(=O)c1cc([N+](=O)[O-])cc([N+](=O)[O-])c1)c1ccc(Cl)cc1,inactive: -6.67%,–
Cc1ccc(NC(=O)Cn2ccn3nc4c(c3c2=O)CCCCC4)cc1,–,"inconclusive: 89.1 µM [inhibitor, single point]"
O=C(N/N=C/c1cc(Cl)cc([N+](=O)[O-])c1O)NC12CC3CC(CC(C3)C1)C2,–,"inconclusive: 50.1 µM [inhibitor, partial curve, poor fit]"
Cc1ccc(C(=O)NC(C)c2ccc(-n3ccnc3)cc2)o1 (stereo not drawn),inactive: 25.1%,–
O=S1(=O)C=C(Sc2nnc(-c3cccnc3)o2)c2ccccc21,–,"inconclusive: 15.8 µM [inhibitor, full curve]"
C[C@H](O)[C@@H](C(=O)N1CCN(C(=O)OC(C)(C)C)CC1)n1cc(CCCCNC(=O)OC(C)(C)C)nn1,inactive: 3.41%,–
CCN1CCN(c2ncc3c(n2)CCN(Cc2cc(Br)cs2)C3)CC1,–,active: 11.2 µM
Cc1ccc2c(CN3CC(C)CC(C)C3)cc(=O)oc2c1C (stereo not drawn),–,"inconclusive: 50.1 µM [inhibitor, partial curve, poor fit]"
C[C@H](NC(=O)C(C#N)=Cc1cccc(Br)n1)c1ccccc1,–,"inconclusive: 24.3 µM [inhibitor, partial curve, poor fit]"
Cc1ccnc(SCC(=O)c2ccc(Br)cc2)c1C#N,inactive: -4.96%,–
COc1ccc(S(=O)(=O)N(Cc2nc3ccccc3c(=O)[nH]2)C2CCCC2)cc1,–,"inconclusive: 8.91 µM [inhibitor, partial curve, poor fit]"
CN1C(=O)Cc2cc(C(=O)N3C[C@@H](CO)[C@H](c4ccccn4)C3)ccc21,inactive: 14.9%,–
FC(F)(F)c1cc(Oc2ccccc2Cl)nc(-c2ccccn2)n1,inactive: -10.3%,–
Cc1ccc(C)c(NC(=O)C(c2ccccc2)N2CCN(C(=O)C3CC3)CC2)c1 (stereo not drawn),inactive: -6.24%,–
CCOc1cccc(/C=C2\NC(=O)NC2=O)c1O,–,"inconclusive: 50.1 µM [inhibitor, partial curve, poor fit]"
COc1ccc(CN(C)C(=O)CSc2nc(-c3cccs3)nc3ccccc23)c(OC)c1OC,inactive: -2.42%,–
CCc1ccc(OCc2nn3c(=O)c4ccccc4nc3s2)cc1,–,"inconclusive: 79.4 µM [inhibitor, single point]"
O=C(Cn1nnc(-c2cccc(F)c2)n1)N(Cc1cccs1)c1ccc2c(c1)OCCO2,inactive: -17.6%,–
COc1cc(/C=N/n2c(-c3n[nH]c4c3CCC4)n[nH]c2=S)cc(OC)c1O,–,"inconclusive: 31.6 µM [inhibitor, partial curve]"

# Retrieved one by one from the list above:
Structure (SMILES),"activity change, negative = inhibition",Potency
Cc1ccc(NC(=O)Cn2ccn3nc4c(c3c2=O)CCCCC4)cc1,–,"inconclusive: 89.1 µM [inhibitor, single point]"
Nc1nc(CSC(=S)N2CCCCC2)nc(Nc2ccccc2)n1,inactive: -25%,–
